Sequences of proteins named here, by UniProt entry; tags and fusion partners are left off. A change or cut given only in a name is not applied to a line headed by its entry.
UniProt Q9UF56: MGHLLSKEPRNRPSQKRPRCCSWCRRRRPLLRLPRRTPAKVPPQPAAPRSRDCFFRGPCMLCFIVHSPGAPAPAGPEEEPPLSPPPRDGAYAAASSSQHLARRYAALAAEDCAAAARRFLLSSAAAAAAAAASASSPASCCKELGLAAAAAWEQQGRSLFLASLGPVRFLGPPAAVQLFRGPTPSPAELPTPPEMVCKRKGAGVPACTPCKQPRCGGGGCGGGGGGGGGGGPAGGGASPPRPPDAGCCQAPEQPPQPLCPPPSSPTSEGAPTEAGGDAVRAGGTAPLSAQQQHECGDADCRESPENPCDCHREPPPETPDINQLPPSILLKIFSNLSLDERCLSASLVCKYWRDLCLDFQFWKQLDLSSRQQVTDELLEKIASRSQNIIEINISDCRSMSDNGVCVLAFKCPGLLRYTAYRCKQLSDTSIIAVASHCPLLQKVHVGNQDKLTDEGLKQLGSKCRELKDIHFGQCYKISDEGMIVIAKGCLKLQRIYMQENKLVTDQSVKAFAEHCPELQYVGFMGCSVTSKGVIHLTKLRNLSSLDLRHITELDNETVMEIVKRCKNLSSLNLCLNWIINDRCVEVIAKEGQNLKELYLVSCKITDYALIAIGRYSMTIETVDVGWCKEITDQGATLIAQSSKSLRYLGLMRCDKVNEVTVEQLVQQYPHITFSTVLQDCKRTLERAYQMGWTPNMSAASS
UniProt P63208: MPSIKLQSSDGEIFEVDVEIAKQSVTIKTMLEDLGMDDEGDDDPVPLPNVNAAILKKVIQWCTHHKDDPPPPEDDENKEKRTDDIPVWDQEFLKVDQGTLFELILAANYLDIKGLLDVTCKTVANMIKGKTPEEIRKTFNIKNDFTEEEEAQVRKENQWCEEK

According to PMC4884786:

Molecular target: Myc‐tagged Fbxl17 lacking the F‐box domain (UniProt Q9UF56)
Assay: co-IP; Myc‐tagged Fbxl17‐truncated fragments immunoprecipitated from HEK293T cells treated with MLN4924 (2 μM, 5 h); endogenous Sufu and Skp1 detected

Skp1 (S‐phase kinase‐associated protein 1) (from UniProt P63208 1-163)
binding: no binding

No constants are given. Whether binding was seen depends on the method and setting. In cells and extracts the contact can be indirect.
